Paper PMC4484422

Chains of the proteins cited; added tags and fusions are not shown. Residues count along the entry.
UniProt P28799, residues 18-593: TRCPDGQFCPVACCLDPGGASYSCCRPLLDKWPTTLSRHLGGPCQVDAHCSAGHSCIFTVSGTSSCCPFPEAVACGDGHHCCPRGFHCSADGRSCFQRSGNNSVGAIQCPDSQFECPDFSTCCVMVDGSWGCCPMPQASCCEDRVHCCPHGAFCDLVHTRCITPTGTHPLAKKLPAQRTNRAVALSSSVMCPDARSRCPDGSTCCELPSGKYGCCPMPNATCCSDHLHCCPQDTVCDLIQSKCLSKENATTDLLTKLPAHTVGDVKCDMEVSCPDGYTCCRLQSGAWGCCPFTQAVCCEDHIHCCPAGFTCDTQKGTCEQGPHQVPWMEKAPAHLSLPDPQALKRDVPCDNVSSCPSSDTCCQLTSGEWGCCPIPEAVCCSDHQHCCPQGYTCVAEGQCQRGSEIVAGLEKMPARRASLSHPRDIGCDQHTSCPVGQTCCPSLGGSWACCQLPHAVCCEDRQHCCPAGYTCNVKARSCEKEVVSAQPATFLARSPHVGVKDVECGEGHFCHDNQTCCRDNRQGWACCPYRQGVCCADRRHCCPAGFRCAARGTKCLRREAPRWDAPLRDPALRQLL
UniProt Q16643: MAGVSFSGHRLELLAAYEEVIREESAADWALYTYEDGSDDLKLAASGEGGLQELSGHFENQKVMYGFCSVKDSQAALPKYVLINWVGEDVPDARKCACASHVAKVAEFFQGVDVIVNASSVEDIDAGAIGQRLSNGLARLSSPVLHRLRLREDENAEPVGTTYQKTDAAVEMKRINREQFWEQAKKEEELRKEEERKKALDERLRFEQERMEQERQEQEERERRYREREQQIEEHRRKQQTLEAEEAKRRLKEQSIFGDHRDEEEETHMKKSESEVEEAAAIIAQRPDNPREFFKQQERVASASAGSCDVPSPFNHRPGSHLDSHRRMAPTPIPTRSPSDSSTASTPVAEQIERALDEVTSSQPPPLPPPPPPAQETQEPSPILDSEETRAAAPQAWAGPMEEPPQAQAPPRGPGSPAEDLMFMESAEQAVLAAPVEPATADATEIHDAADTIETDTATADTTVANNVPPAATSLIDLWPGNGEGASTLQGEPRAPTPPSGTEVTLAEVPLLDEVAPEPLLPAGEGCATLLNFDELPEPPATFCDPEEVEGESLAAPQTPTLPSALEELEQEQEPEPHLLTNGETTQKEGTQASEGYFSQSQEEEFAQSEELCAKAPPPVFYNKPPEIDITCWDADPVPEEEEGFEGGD

Target: recombinant His-tagged progranulin (UniProt P28799)
Assay: affinity purification with mass spectrometry; 10 mg NP-40 lysate of serum-starved 5637 cells (stimulated with 40 nM progranulin for 5 min), precleared with Ni-NTA-agarose, incubated with or without 7 ug recombinant His-tagged progranulin overnight at 4°C, then Ni-NTA-agarose beads 1 h; SDS-PAGE, Coomassie, excised bands analysed by MS/MS; only the target purified

binding: binds
Substance: drebrin (developmentally regulated brain protein) (from UniProt Q16643 1-649)

Results are given in words; binding and its absence hold for the method and conditions named. In cells and extracts the contact can be indirect. A yes stands for co-enrichment or nearness to the bait. Other partners may have been found.
